Among the data in paper PMC12758332 are binding values, retold here.

By UniProt entry, the sequences of proteins in these tests, tags left out.
UniProt Q09472: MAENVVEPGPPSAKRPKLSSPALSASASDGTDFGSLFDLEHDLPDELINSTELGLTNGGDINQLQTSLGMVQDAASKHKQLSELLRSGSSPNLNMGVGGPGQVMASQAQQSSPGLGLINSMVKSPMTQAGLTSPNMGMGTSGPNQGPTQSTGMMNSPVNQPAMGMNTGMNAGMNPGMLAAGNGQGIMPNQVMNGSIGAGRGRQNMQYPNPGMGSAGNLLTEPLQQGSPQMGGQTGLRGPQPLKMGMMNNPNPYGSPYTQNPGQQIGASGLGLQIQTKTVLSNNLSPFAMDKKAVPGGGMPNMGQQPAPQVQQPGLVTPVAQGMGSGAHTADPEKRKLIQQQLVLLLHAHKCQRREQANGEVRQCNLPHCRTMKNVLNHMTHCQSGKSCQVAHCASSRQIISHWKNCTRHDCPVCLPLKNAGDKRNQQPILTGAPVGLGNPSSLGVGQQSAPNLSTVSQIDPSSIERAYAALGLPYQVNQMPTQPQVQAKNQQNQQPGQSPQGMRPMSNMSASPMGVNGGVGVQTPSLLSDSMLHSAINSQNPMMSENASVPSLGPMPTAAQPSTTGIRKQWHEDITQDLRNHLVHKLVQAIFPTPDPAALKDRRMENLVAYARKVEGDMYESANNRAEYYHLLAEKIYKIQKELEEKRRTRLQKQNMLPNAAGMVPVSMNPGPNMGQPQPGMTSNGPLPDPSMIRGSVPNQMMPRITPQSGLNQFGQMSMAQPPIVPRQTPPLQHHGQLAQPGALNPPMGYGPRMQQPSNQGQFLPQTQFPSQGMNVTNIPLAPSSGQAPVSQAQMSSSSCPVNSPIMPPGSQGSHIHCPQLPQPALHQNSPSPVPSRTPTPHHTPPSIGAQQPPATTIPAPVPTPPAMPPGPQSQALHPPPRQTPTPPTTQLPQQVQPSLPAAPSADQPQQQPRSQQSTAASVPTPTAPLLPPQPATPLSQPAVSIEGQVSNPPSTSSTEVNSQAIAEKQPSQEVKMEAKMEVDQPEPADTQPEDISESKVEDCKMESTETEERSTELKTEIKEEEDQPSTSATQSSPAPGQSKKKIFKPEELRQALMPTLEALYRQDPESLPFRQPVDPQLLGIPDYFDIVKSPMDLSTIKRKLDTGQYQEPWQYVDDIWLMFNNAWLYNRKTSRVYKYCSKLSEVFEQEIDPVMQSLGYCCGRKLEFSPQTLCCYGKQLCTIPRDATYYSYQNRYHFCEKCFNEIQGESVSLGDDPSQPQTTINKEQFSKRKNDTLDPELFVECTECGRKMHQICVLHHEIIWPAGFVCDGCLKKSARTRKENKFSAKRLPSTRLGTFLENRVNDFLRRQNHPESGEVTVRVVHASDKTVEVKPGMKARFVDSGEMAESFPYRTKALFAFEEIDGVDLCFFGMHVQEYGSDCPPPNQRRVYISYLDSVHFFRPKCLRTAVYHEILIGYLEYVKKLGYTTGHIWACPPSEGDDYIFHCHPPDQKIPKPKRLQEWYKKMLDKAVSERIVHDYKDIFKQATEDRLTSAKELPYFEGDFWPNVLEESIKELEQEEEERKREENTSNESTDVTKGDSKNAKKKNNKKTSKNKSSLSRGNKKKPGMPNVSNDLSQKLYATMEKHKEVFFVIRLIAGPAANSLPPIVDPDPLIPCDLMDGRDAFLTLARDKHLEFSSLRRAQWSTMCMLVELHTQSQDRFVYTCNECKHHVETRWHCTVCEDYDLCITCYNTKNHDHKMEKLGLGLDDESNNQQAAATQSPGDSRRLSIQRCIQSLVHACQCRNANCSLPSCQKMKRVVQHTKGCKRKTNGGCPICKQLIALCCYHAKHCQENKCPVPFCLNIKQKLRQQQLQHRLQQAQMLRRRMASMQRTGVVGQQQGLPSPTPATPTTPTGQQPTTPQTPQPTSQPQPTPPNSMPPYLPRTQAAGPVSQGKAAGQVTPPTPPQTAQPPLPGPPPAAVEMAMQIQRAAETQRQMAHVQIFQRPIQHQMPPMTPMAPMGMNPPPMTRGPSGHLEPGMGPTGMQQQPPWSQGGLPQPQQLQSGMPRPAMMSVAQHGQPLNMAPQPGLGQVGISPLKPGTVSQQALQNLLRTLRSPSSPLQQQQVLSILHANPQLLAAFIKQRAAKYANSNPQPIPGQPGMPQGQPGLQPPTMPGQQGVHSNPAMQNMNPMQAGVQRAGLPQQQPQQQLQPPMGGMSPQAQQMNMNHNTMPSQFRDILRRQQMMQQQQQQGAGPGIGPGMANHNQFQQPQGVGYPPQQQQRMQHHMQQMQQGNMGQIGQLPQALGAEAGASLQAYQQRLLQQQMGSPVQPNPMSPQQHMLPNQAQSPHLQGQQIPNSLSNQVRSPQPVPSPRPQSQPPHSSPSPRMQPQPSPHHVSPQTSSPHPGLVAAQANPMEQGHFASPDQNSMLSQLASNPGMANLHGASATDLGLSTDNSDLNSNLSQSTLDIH
UniProt O14929: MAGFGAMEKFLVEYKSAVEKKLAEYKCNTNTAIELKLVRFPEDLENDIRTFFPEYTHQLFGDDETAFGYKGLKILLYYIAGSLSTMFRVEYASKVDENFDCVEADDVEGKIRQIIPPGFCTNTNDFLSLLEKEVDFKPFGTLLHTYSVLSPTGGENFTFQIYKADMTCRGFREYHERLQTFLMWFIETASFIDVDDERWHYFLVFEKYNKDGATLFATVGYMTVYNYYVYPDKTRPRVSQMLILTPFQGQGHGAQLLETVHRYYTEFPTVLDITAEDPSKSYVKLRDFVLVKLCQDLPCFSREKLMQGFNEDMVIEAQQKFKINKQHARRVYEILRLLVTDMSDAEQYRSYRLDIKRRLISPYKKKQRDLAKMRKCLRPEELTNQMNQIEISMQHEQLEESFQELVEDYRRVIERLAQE
UniProt Q8WYB5: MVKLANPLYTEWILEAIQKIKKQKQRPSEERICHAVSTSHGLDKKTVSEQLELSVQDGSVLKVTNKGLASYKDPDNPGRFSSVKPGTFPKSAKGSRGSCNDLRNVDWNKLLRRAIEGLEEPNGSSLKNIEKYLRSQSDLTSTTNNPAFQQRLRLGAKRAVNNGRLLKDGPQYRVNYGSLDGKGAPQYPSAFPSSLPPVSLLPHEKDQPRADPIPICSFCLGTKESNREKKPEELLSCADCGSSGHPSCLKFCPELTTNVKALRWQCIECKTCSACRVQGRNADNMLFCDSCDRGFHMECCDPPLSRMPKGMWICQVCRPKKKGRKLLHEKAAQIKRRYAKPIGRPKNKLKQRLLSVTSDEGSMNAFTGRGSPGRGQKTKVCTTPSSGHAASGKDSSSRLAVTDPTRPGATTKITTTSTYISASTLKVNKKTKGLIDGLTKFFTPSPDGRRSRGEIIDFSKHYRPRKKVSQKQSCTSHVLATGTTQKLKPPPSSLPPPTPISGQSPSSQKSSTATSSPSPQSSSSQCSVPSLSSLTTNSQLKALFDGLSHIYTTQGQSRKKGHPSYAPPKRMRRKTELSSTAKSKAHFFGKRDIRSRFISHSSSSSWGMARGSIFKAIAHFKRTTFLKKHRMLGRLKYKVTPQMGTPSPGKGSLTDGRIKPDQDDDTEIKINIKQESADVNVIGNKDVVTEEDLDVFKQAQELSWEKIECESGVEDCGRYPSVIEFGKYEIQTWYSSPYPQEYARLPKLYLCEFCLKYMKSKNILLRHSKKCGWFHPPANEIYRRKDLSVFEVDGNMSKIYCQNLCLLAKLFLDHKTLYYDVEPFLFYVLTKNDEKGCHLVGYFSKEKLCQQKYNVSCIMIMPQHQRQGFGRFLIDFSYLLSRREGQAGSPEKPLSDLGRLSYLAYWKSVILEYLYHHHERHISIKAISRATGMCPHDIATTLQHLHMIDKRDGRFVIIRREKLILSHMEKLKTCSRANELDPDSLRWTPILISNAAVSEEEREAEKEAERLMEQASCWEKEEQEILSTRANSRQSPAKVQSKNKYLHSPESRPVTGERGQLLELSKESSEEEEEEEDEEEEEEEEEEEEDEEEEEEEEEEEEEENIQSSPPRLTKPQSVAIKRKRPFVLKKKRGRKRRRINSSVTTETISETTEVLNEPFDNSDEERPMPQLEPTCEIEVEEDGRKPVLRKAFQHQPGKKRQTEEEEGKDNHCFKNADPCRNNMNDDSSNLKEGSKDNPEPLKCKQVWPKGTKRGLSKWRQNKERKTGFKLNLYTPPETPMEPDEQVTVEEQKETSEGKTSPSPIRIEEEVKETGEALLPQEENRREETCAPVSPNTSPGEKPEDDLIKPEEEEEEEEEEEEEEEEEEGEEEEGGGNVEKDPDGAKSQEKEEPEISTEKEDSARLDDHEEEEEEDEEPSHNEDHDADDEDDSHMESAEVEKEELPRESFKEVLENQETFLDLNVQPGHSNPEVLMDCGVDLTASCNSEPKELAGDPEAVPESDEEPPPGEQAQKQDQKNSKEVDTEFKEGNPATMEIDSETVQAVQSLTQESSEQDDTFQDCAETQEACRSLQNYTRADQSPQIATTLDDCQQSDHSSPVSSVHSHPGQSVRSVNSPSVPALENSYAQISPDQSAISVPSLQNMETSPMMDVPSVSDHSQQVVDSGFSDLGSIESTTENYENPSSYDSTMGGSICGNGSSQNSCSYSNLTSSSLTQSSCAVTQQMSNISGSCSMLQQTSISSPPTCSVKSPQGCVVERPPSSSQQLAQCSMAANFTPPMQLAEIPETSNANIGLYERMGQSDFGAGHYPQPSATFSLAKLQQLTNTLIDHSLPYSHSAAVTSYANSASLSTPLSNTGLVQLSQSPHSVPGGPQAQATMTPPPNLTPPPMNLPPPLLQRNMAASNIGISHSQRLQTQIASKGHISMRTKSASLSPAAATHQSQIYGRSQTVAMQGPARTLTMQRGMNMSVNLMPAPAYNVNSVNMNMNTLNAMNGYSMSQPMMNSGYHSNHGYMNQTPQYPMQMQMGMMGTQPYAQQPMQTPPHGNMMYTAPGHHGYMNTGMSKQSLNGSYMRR

No constants are given. Whether binding was seen depends on the method and setting. Binding seen in cells or lysates may run through a third protein. These calls come from enrichment with a bait or labelling near it, and not all partners need be listed.

For the assay, the target named is T1, Zinc finger MIZ domain-containing protein 2 (ZMIZ2) (human (endogenous in LNCaP and 22RV1)) (UniProt Q8NF64).
T1 sequence: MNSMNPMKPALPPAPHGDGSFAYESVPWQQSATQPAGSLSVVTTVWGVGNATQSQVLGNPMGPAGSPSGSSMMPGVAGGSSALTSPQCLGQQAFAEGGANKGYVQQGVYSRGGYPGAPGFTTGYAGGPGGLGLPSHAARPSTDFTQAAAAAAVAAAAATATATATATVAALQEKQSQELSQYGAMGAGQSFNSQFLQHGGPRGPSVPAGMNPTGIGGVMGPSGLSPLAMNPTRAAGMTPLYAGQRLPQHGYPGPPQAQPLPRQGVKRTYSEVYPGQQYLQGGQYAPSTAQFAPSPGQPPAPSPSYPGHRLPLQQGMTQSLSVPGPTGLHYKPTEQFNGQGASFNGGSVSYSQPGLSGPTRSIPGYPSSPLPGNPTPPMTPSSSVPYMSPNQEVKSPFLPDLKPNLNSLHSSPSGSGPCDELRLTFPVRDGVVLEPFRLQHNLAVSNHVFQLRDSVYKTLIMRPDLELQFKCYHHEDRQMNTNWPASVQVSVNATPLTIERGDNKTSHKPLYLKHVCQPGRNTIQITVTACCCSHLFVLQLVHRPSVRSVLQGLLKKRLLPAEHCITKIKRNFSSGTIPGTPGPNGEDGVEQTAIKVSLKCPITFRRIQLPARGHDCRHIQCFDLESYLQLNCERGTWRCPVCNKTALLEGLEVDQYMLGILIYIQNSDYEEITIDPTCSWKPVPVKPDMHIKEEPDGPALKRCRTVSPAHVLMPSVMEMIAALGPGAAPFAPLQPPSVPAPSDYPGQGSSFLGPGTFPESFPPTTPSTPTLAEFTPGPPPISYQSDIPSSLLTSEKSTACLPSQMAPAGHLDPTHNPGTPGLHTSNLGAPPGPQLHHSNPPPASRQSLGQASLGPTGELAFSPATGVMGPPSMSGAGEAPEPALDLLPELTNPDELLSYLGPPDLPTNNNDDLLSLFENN
Put plainly: affinity purification with mass spectrometry; IP-MS of ZMIZ2; cells and conditions not given.
Consider “EP300 (from UniProt Q09472 1-2414) (enzyme)”, for which the binding result is “binds”.
The same measure for “HAT1 (from UniProt O14929 1-419) (enzyme)”: “binds”; for “KAT6B (from UniProt Q8WYB5 1-2073) (enzyme)”: “binds”.
